Test results from publication PMC6813494.
Results are given in words; binding and its absence hold for the method and conditions named.

Tests used:
Test in all cases: two-hybrid
[1] = target: PslA (P. aeruginosa PAO1) (UniProt Q9I1N8)
[2] = target: T1, PslG_(31-442) (P. aeruginosa PAO1) (UniProt Q9I1N2)
T1 sequence: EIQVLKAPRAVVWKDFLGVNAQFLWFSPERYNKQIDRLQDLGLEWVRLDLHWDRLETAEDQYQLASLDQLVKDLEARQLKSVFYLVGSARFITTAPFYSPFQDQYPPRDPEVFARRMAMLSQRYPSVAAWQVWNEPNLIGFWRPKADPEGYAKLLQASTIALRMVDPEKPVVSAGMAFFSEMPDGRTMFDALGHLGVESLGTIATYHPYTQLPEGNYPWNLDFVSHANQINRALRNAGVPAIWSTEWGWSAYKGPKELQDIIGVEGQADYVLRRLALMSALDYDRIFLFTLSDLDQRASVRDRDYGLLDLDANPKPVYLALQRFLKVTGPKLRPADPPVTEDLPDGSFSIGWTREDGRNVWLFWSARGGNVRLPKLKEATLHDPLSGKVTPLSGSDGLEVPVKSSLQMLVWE

[3] = target: PslG (P. aeruginosa PAO1) (UniProt Q9I1N2)

Measured: binding

PslA (from UniProt Q9I1N8 1-478)
no binding: all assays above

PslG (from UniProt Q9I1N2 1-442)
no binding: all assays above

B1: PslG_(31-442) (domain or fragment, UniProt Q9I1N2 31-442)
chain: EIQVLKAPRAVVWKDFLGVNAQFLWFSPERYNKQIDRLQDLGLEWVRLDLHWDRLETAEDQYQLASLDQLVKDLEARQLKSVFYLVGSARFITTAPFYSPFQDQYPPRDPEVFARRMAMLSQRYPSVAAWQVWNEPNLIGFWRPKADPEGYAKLLQASTIALRMVDPEKPVVSAGMAFFSEMPDGRTMFDALGHLGVESLGTIATYHPYTQLPEGNYPWNLDFVSHANQINRALRNAGVPAIWSTEWGWSAYKGPKELQDIIGVEGQADYVLRRLALMSALDYDRIFLFTLSDLDQRASVRDRDYGLLDLDANPKPVYLALQRFLKVTGPKLRPADPPVTEDLPDGSFSIGWTREDGRNVWLFWSARGGNVRLPKLKEATLHDPLSGKVTPLSGSDGLEVPVKSSLQMLVWE
no binding: all assays above
